Source: the supplement of paper PMC5836539
± gives the standard deviation of the averaged measurements. Repeats in this data set agree poorly, so a single value says little.

Chains of the proteins cited; added tags and fusions are not shown. Lines headed by an entry give the natural chain unless they say otherwise; changes in a name come on top.
UniProt P05455: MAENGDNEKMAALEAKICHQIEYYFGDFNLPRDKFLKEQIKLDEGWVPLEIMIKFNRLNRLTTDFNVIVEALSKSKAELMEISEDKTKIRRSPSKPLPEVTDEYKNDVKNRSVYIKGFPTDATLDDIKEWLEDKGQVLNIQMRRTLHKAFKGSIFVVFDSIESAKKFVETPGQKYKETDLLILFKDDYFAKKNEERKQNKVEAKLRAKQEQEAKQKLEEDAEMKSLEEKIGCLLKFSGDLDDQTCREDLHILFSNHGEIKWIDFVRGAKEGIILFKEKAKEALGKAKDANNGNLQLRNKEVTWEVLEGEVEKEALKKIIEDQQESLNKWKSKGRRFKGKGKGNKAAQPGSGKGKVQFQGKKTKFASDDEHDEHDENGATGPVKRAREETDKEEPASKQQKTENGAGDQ
UniProt P16949: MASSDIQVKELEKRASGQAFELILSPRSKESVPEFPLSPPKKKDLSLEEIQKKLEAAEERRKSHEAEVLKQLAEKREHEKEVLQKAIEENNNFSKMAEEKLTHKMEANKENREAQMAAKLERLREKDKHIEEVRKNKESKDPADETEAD
UniProt Q9Y2W1: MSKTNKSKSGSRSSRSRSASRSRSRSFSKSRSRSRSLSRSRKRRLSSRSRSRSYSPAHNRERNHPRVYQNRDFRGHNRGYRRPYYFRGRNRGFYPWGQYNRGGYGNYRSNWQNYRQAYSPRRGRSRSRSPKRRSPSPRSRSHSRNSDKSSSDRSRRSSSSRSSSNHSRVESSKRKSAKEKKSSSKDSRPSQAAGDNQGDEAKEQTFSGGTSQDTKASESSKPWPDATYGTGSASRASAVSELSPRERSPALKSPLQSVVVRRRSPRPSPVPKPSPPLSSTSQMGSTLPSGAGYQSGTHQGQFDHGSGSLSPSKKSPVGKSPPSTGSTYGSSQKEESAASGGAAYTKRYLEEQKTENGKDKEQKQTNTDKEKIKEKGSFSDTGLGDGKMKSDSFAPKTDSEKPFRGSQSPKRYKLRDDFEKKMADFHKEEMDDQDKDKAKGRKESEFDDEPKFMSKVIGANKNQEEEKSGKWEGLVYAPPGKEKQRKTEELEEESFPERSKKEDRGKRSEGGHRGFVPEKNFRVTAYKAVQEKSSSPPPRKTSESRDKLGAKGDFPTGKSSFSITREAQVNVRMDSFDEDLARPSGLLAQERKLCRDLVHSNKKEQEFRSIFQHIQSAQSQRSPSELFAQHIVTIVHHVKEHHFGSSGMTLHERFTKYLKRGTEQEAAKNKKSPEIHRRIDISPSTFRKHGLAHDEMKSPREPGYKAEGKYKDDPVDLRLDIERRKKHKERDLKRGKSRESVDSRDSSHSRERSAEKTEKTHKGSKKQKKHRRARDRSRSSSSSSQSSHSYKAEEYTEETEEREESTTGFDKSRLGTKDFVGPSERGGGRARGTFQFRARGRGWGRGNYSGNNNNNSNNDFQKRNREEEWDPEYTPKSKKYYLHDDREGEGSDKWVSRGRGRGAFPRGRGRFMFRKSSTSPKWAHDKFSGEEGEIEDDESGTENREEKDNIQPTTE
UniProt Q12888: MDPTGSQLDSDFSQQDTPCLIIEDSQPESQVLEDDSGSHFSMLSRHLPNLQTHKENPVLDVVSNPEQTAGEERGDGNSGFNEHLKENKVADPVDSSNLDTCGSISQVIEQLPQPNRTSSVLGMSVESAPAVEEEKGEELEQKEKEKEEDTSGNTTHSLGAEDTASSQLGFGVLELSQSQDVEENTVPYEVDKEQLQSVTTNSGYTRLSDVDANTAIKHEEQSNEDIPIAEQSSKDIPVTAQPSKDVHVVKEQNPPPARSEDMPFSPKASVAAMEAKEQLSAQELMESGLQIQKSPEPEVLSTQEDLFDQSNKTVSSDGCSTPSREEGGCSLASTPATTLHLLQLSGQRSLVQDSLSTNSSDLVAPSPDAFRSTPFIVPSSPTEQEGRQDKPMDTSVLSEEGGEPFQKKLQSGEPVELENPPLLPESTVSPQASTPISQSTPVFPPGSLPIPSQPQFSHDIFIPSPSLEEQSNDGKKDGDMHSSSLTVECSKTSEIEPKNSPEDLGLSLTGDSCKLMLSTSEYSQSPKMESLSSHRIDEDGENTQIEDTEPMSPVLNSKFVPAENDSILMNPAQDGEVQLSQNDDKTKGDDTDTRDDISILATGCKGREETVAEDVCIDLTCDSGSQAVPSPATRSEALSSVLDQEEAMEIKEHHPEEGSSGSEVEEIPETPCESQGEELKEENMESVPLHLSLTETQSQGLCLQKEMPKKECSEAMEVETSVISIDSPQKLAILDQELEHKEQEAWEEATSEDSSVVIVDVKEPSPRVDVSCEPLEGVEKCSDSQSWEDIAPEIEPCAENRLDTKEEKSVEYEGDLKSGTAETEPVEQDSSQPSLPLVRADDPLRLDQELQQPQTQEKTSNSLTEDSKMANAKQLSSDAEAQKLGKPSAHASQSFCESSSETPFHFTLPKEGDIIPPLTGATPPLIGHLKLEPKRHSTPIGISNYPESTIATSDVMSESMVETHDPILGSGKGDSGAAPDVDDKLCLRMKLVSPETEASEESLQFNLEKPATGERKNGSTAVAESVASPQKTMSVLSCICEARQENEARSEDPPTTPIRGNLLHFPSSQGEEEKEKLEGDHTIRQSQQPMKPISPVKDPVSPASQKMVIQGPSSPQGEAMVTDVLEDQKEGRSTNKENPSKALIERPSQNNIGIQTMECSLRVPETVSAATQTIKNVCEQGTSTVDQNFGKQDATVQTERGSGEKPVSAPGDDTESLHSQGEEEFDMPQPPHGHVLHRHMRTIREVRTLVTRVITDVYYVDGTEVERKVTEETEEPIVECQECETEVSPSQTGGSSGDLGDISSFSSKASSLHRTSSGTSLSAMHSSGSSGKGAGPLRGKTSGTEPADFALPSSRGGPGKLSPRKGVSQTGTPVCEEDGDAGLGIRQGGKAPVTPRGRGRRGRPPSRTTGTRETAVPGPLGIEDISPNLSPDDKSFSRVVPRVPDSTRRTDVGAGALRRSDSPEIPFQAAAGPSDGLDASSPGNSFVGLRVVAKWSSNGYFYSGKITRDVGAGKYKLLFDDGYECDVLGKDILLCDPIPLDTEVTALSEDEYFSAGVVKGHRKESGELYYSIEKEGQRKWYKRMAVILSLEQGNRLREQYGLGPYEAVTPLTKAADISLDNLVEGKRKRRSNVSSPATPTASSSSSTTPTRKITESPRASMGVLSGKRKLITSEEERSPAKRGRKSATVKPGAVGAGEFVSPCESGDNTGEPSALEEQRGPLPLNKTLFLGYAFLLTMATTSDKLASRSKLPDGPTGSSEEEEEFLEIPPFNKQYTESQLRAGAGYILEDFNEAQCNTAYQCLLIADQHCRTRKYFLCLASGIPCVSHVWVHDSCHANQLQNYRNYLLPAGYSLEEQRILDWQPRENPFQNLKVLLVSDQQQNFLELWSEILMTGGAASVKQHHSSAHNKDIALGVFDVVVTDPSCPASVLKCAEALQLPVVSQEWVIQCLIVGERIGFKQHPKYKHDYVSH
UniProt Q2TAM9: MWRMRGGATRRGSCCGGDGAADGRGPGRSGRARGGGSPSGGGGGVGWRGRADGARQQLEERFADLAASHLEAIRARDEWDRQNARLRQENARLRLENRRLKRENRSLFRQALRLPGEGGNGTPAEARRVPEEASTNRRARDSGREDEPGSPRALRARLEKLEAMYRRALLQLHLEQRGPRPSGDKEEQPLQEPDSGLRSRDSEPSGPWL
UniProt P40222: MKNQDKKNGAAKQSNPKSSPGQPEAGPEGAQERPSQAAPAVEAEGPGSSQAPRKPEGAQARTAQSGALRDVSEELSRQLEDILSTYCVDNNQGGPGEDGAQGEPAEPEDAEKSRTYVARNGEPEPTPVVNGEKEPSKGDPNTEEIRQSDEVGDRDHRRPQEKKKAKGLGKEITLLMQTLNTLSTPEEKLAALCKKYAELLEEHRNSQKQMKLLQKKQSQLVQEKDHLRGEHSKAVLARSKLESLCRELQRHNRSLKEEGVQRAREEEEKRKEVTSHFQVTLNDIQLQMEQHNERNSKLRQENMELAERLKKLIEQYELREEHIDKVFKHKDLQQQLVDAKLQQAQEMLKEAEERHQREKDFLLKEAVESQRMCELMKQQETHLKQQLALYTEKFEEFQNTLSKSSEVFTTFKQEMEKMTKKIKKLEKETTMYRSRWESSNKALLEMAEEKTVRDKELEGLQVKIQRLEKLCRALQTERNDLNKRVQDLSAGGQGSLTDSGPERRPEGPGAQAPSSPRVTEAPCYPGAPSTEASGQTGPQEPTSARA
UniProt O94888: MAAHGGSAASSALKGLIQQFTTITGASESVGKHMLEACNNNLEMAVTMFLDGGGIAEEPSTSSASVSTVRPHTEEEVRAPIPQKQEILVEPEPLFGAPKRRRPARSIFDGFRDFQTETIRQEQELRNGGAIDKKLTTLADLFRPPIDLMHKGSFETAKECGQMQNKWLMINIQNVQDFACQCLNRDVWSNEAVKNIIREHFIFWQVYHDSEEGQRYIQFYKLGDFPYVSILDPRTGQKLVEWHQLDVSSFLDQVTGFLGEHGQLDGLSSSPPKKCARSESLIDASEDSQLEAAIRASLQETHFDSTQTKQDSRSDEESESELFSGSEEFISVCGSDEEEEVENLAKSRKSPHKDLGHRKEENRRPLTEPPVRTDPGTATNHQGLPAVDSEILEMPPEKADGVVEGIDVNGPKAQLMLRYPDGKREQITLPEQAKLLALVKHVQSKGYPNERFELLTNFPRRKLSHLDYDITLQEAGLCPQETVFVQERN
UniProt A0JNW5: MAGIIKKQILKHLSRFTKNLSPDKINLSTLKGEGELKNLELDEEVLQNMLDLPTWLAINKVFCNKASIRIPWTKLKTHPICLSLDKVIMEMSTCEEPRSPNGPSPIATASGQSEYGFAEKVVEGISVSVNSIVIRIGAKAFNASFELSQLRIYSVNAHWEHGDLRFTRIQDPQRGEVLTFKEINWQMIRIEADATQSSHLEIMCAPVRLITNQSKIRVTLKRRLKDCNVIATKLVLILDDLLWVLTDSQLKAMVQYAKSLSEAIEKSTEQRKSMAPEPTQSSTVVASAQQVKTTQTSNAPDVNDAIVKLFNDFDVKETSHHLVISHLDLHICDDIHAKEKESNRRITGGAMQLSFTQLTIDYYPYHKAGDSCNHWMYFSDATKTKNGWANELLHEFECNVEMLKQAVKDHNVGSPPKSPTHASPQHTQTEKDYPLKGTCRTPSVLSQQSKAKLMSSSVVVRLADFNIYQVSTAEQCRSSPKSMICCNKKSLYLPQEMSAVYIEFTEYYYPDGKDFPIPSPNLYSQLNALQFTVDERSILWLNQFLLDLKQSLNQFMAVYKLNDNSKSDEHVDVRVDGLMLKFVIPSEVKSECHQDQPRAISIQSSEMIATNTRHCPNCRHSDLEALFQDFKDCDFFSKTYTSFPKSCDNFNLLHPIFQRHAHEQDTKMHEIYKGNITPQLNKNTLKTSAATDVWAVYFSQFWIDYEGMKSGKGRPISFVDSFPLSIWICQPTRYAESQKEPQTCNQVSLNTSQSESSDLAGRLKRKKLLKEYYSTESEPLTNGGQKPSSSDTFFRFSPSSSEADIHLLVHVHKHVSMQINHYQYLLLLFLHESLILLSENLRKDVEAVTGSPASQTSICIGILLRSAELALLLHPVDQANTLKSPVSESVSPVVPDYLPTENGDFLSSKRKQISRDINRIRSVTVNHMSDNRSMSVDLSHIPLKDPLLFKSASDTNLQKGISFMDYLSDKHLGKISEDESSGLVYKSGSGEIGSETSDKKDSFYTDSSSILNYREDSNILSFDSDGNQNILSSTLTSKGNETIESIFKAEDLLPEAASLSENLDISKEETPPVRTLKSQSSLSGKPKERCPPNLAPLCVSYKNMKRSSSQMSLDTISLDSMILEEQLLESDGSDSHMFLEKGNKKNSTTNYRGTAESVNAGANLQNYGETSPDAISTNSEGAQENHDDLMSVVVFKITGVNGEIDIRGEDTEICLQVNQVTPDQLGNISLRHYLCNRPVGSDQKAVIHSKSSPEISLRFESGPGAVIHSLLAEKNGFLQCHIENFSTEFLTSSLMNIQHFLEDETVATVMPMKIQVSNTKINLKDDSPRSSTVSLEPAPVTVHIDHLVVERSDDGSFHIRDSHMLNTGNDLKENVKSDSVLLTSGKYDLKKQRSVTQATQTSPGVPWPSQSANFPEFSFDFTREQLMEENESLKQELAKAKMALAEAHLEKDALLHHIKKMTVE
UniProt P08559, whole entry, looked up: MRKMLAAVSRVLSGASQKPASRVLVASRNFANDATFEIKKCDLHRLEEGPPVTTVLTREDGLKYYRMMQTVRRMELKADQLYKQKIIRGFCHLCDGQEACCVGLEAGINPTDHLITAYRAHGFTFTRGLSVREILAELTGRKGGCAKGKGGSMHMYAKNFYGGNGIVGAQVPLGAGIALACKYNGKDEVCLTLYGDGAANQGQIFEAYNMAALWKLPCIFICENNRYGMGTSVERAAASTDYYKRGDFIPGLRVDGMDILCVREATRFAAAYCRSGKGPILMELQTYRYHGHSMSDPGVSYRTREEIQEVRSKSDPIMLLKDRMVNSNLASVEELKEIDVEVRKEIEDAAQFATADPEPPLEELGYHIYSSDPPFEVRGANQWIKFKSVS

Tests used:
[1] = compound: T1, CC[C@@H](C)Nc1cc(C(=O)N[C@H]2C[C@H]3CC[C@@H](C2)N3c2ccc(C(=O)C3CC3)cn2)c(C)cc1C(N)=O [XL888]; assay: phosphopeptide melting temperature shift (XL888 minus DMSO); higher = stabilised by drug treatment; conditions: 100 µM; treatment time 2 h; layout: intact cells; SK-Mel 24
Experimental: (§1)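 Phospho-TPP in intact SK-Mel 24 cells treated with 100 uM XL888 or DMSO for 2 h, heated at 10 temperatures (37-67 C) for 3 min, soluble fraction TMT10plex-labelled and TiO2 phospho-enriched. Melting curves were fitted per phosphopeptide; the value is the melting point difference (drug minus vehicle) in each of two biological replicates.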

[2] = compound: T1, XL888; assay: as above; conditions: 100 µM; treatment time 2 h; layout: intact cells; SK-Mel 28
Experimental: as §1, with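 “28” for “24”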

Target | phosphopeptide melting temperature shift [1] [°C] | phosphopeptide melting temperature shift [2] [°C]
SSB phosphosite_366 (phosphosite position: 366) (UniProt P05455) | -1.23 ± 0.14 | -0.78 ± 0.17
STAT1 phosphosite_727 (phosphosite position: 727) (UniProt P42224) | -0.308 | -1.17 ± 0.93
STIP1 phosphosite_481 (phosphosite position: 481) (UniProt P31948) | 2.44 | 0.955 ± 0.23
STMN1 phosphosite_16 (phosphosite position: 16) (UniProt P16949) | 0.869 | 1.02
SUPT6H phosphosite_125 (phosphosite position: 125) (UniProt Q7KZ85) | -0.842 | 0.206 ± 0.059
TCEA1 phosphosite_100 (phosphosite position: 100) (UniProt P23193) | 0.841 | 0.812 ± 0.34
TFIP11 phosphosite_98 (phosphosite position: 98) (UniProt Q9UBB9) | 0.657 | 1.28 ± 0.38
THRAP3 phosphosite_248 (phosphosite position: 248) (UniProt Q9Y2W1) | 1.08 | 4.76
THRAP3 phosphosite_682 (phosphosite position: 682) (UniProt Q9Y2W1) | 1.66 ± 1.5 | 0.272 ± 0.22
THRAP3 phosphosite_939 (phosphosite position: 939) (UniProt Q9Y2W1) | 1.66 | 0.797
TMPO phosphosite_66 (phosphosite position: 66) (UniProt P42166) | 2 | 1.23 ± 2.7
TNS1 phosphosite_1177 (phosphosite position: 1177) (UniProt Q9HBL0) | 0.779 | 3.73
TP53BP1 phosphosite_380 (phosphosite position: 380) (UniProt Q12888) | 1.35 | 3.64 ± 2.6
TPMT phosphosite_14 (phosphosite position: 14) (UniProt P51580) | 0.114 | 0.6 ± 0.33
TRIM28 phosphosite_473 (phosphosite position: 473) (UniProt Q13263) | -0.14 ± 0.018 | -1.54 ± 0.47
TRIP12 phosphosite_312 (phosphosite position: 312) (UniProt Q14669) | 1.28 | -3.01
TSC22D4 phosphosite_229 (phosphosite position: 229) (UniProt Q9Y3Q8) | -1.61 | -0.0854
TSC22D4 phosphosite_279 (phosphosite position: 279) (UniProt Q9Y3Q8) | -0.519 | 2.4
TUSC1 phosphosite_153 (phosphosite position: 153) (UniProt Q2TAM9) | 0.777 | 2.22
TXLNA phosphosite_515 (phosphosite position: 515) (UniProt P40222) | -0.112 | 0.945 ± 1.2
UBA1 phosphosite_13 (phosphosite position: 13) (UniProt P22314) | 0.241 ± 0.59 | 0.144 ± 0.87
UBL7 phosphosite_230 (phosphosite position: 230) (UniProt Q96S82) | 0.395 | 0.304 ± 1.2
UBXN7 phosphosite_288 (phosphosite position: 288) (UniProt O94888) | -1.45 | 1.26
UHRF1BP1L phosphosite_418 (phosphosite position: 418) (UniProt A0JNW5) | 0.127 | -0.15 ± 0.11
USP24 phosphosite_1943 (phosphosite position: 1943) (UniProt Q9UPU5) | -1.53 | 1.32
USP24 phosphosite_2561 (phosphosite position: 2561) (UniProt Q9UPU5) | 0.403 | -0.013 ± 0.044
UniProt O00203-3_phosphosite_227 (phosphosite position: 227) | 0.223 | 1.53 ± 0.38

Target | phosphopeptide melting temperature shift [1] [°C] | phosphopeptide melting temperature shift [2] [°C]
UniProt O00203-3_phosphosite_701 (phosphosite position: 701) | -0.0747 | 0.938 ± 0.43
UniProt O00429-4_phosphosite_579 (phosphosite position: 579) | -0.282 ± 0.33 | 0.464 ± 1.2
UniProt O14874-2_phosphosite_31 (phosphosite position: 31) | 0.877 ± 0.45 | 1.19 ± 1.1
UniProt O43815-2_phosphosite_233 (phosphosite position: 233) | 0.256 | 0.942 ± 0.34
UniProt O60333-2_phosphosite_1011 (phosphosite position: 1011) | 0.549 ± 0.49 | -0.371
UniProt O60502-3_phosphosite_364 (phosphosite position: 364) | 1.34 | 0.692 ± 0.53
UniProt O75382-3_phosphosite_7 (phosphosite position: 7) | 0.287 ± 0.63 | 0.623 ± 0.54
UniProt O75382-3_phosphosite_358 (phosphosite position: 358) | 0.737 | 1.09 ± 1.2
UniProt O94804_phosphosite_952 (phosphosite position: 952) | -0.342 | 0.183 ± 0.45
UniProt O94979-3_phosphosite_527 (phosphosite position: 527) | 0.458 | 0.0243 ± 0.51
UniProt O94979-3_phosphosite_799 (phosphosite position: 799) | 0.572 ± 0.55 | 1.77 ± 0.098
UniProt O95218-2_phosphosite_181 (phosphosite position: 181) | 0.139 | -0.738 ± 0.96
UniProt O95747_phosphosite_339 (phosphosite position: 339) | -0.672 ± 0.64 | -0.624 ± 0.25
UniProt P08559-3_phosphosite_262 (phosphosite position: 262) | 0.205 ± 0.47 | 1.48 ± 2.9
UniProt P08651-4_phosphosite_290 (phosphosite position: 290) | 0.61 | -0.0174
UniProt P11137-3_phosphosite_1645 (phosphosite position: 1645) | 1.21 | 2
UniProt P11137-3_phosphosite_1778 (phosphosite position: 1778) | 1.53 | 2.67 ± 1.5
UniProt P16383_phosphosite_180 (phosphosite position: 180) | -0.0996 | 0.097 ± 1.9
UniProt P17812_phosphosite_562 (phosphosite position: 562) | -3.08 | -1.72
UniProt P17812_phosphosite_575 (phosphosite position: 575) | -1 | 1.05 ± 0.084
UniProt P21127-9_phosphosite_81 (phosphosite position: 81) | 2.03 | 3.38 ± 2
UniProt P21127-9_phosphosite_236 (phosphosite position: 236) | 3.24 | 2.62
UniProt P21127-9_phosphosite_542 (phosphosite position: 542) | 1.21 ± 0.7 | 2.812 ± 0.018
UniProt P21333-2_phosphosite_2144 (phosphosite position: 2144) | 0.549 ± 0.084 | 0.724 ± 0.22
UniProt P21359-2_phosphosite_2522 (phosphosite position: 2522) | 0.11 ± 0.16 | -0.038
UniProt P25325-2_phosphosite_15 (phosphosite position: 15) | 0.795 | 1.32
UniProt P26368-2_phosphosite_79 (phosphosite position: 79) | 1.353 ± 0.012 | -1.3 ± 0.27
